Source: publication PMC10062582
Read-outs that look alike come from different tables or passages of the source. No constants are given. Whether binding was seen depends on the method and setting. Some results given as binding are weak or reduced against the parent protein; the word gives no strength. For part of these data: Tags and fused reporters may be left off the sequences shown. Each block holds one molecule with its values, some of them ahead of it.

Protein sequences, listed by entry. Tags and fused reporters are not part of them.
UniProt P40160: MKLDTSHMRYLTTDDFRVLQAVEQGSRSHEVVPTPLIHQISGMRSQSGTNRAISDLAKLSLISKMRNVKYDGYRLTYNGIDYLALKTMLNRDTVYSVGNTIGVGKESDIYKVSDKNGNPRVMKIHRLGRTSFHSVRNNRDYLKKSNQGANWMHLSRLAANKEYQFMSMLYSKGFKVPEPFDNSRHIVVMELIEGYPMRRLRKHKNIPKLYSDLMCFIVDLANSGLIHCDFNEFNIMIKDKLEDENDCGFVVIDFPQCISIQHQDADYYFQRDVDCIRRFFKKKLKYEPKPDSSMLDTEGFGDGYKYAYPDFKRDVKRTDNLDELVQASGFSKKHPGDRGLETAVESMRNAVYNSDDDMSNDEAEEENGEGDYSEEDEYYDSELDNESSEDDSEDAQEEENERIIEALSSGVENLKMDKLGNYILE

Key:
Test in all cases: cryo-EM structure; SSU precursor particles (with 20S pre-rRNA) one-step affinity purified via Enp1-TAP from extract of control strain Y2226 after four hours in glucose medium; state Enp1TAP_A; bait rows: proteins found together in one particle, direct contact not told
[1] = target: T1, Enp1 in fusion with the tandem affinity purification tag (Enp1-TAP) (S. cerevisiae) (UniProt P38333)
T1 sequence: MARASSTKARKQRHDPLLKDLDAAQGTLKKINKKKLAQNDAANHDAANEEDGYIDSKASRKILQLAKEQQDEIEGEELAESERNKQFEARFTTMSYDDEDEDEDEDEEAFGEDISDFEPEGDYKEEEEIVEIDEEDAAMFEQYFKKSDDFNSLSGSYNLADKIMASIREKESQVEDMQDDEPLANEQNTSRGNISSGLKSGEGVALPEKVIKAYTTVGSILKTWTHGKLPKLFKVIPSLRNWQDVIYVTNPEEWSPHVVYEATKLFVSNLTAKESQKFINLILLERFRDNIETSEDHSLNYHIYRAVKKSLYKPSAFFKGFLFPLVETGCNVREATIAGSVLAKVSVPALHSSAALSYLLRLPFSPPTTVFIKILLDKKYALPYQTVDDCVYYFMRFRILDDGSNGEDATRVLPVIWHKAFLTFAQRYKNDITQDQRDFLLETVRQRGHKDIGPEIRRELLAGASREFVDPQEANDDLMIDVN

[2] = target: T2, Pno1 (S. cerevisiae (endogenous)) (UniProt Q99216)
T2 sequence: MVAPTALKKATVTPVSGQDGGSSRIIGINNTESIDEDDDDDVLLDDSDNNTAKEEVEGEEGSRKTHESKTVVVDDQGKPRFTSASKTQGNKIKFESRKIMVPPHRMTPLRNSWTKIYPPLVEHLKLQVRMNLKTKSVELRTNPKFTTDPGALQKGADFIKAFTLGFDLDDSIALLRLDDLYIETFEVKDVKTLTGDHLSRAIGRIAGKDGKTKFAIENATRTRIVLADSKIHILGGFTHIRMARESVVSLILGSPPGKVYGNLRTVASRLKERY

[3] = target: T1, Enp1 in fusion with the tandem affinity purification tag (Enp1-TAP) (S. cerevisiae); remark: listed apart in the source

- binding [1]: binds
Molecule: Rio2 (from UniProt P40160 1-425)

- binding [2]: binds
B1: yeast endonuclease Nob1 (enzyme, UniProt Q08444 1-459)
chain: MTENQTAHVRALILDATPLITQSYTHYQNYAQSFYTTPTVFQEIKDAQARKNLEIWQSLGTLKLVHPSENSIAKVSTFAKLTGDYSVLSANDLHILALTYELEIKLNNGDWRLRKKPGDALDASKADVGTDGKQKLTEDNKKEEDSESVPKKKNKRRGGKKQKAKREAREAREAENANLELESKAEEHVEEAGSKEQICNDENIKESSDLNEVFEDADDDGDWITPENLTEAIIKDSGEDTTGSLGVEASEEDRHVALNRPENQVALATGDFAVQNVALQMNLNLMNFMSGLKIKRIRNYMLRCHACFKIFPLPKDGKPKHFCASCGGQGTLLRCAVSVDSRTGNVTPHLKSNFQWNNRGNRYSVASPLSKNSQKRYGKKGHVHSKPQENVILREDQKEYEKVIKQEEWTRRHNEKILNNWIGGGSADNYISPFAITGLKQHNVRIGKGRYVNSSKRRS

- binding [3]: binds
B2: Tsr1 (protein, UniProt Q07381 1-788)
chain: MAGHSHRSSLKNGHKSYKSKHASKGALKRLYKGKVEKEPVGTGKPDKQVSKLQRKNKAKQLRAQRILDSIENRKLFEGKNGAAKIITIVPLVNDLDPLDILYKLLKCADDEGIMVQEVDSKRIFNVHIKKFKSNLKIIIPDMTNFLNILDCAKVADFVVFGLSGVQEVDEEFGEQIIRALELQGIASYIGVISNLSAVHEKEKFQLDVKQSLESYFKHFFPSEERVYNLEKNSDALNVLRTLCQRLPRSINWRDNRGYVVADFVDFVETSPDSGDLVIEGTVRGIGFNANRLVHIPDFGDFQLNKIEKISESSQKRKIIKEKATDSLSLELDLQTVFESNMNRDTLDEYAPEGTEDWSDYDEDFEYDGLTTARYDDHGFLPGREQTSKKAAVPKGTSDYQAKWYLDDVIDANEEEEAEQTNGKDETMMEIDDEMMVEQDNEEVAGDEEYDIEDNEGFEELSPEEEERQLREFRDMEKEDREFPDEIELEPSESAIERLKRYRGLKNLYNCDWQVDEKDPSSPAEWKRLLRIGNYKNTKNRIIKETKNEAQAIAGDRIRMFIRFPKFLLEKIQDPKQLLFAVYGLLLHEHKNAVVNFSLQRWEQYDKPVPSQEPIVVQYGVRRYTIQPLFSQGSNSPNNVHKYERFLHPDTVSVATCIAPVDFTQSPAIFFKPSPTDAKNIELIGHGTFLNADHSRILAKRAILTGHPFRFHKTVVTVRYMFFRPEDVEWFKSIPLFTKSGRSGFIKESLGTHGYFKATFDGKLSAQDVVAMSLYKRMWPMPSLPWNGM
